Measured values from US9718762B2, “Insecticidal compounds” (Syngenta Participations AG, priority 2013, dated 2017).
Some results were stated once for a whole list of compounds, not compound by compound.

Test system: Aedes aegypti
Assay: Aedes aegypti (yellow fever mosquito) dry deposit contact test
Format: in vivo
Conditions: 200 ppm in ethanol, dry deposit in 12 well plates, adult females; mortality after 48 h and/or 24 h

| SMILES | control of Aedes aegypti after 48 h and/or 24 h |
| --- | --- |
| CCN(C(=O)c1ccc(C#N)cc1)c1cccc(C(=O)Nc2c(Cl)cc(C(F)(C(F)(F)F)C(F)(F)F)cc2Br)c1OC [Compound 1, N-[2-bromo-6-chloro-4-[1,1,1,2,3,3,3-heptafluoro-prop-2-yl]phenyl]-3-[(4-cyanobenzoyl)-ethyl-amino]-2-methoxy-benzamide] | at least 80% |
| CCN(C(=O)c1ccc(C#N)cc1)c1cccc(C(=O)Nc2c(Cl)cc(C(F)(C(F)(F)F)C(F)(F)F)cc2Cl)c1OC [Compound 2] | at least 80% |
| CCc1cc(C(F)(C(F)(F)F)C(F)(F)F)cc(C)c1NC(=O)c1cccc(N(CC)C(=O)c2ccc(C#N)cc2)c1OC [Compound 3] | at least 80% |
| COc1c(C(=O)Nc2c(Cl)cc(C(F)(C(F)(F)F)C(F)(F)F)cc2Br)cccc1N(C)C(=O)c1ccc(C#N)cc1 [Compound 4] | at least 80% |
| CCN(C(=O)c1ccc(C#N)cc1)c1cccc(C(=O)Nc2c(Br)cc(C(F)(C(F)(F)F)C(F)(F)F)cc2Br)c1OC [Compound 5] | at least 80% |
| COc1c(C(=O)Nc2c(Br)cc(C(F)(C(F)(F)F)C(F)(F)F)cc2Br)cccc1N(C)C(=O)c1ccc(C#N)cc1 [Compound 6] | at least 80% |
| COc1c(C(=O)Nc2c(Cl)cc(C(F)(C(F)(F)F)C(F)(F)F)cc2Cl)cccc1N(C)C(=O)c1ccc(C#N)cc1 [Compound 7] | at least 80% |
